Measured values reported in US20110318270A1, “DRUG IDENTIFICATION PROTOCOL FOR TYPE 2 DIABETES BASED ON GENE EXPRESSION SIGNATURES” (VERVA PHARMACEUTICALS LTD, priority 2009, published 2011).
For some assays here: The name of at least one read-out is uncertain. For some assays here: For at least one compound, name, drawing or mass did not settle the structure.

Columns and labels:
Assay type in all cases: cell-based
3T3-L1 adipocytes [1] = assay: Reversal of TNFα-induced insulin resistance, 2-deoxyglucose (2-DOG) uptake; conditions: 5 mM ASA and/or 10 μM TGZ in final 24 h of 72 h TNFα treatment
Description: Initially, a model of TNFα-induced insulin resistance in 3T3-L1 adipocytes was established as described previously (Sartipy and Loskutoff J Biol Chem 278:52298-52306, 2003). Following exposure of 3T3-L1 adipocytes to 3 ng/ml TNFα for 72 h, insulin resistance was determined by the ability of the cells to take up 2-deoxyglucose (2-DOG) in response to insulin. TNFα caused a 37% decrease in 2-DOG uptake compared with insulin-stimulated vehicle-treated cells (p<0.0001) (Table 1).
3T3-L1 adipocytes were either treated with vehicle—(Veh), 3 ng/ml TNFα-(TNF) or 3 ng/ml TNFα plus 10 μM TGZ and 5 mM ASA (TTA) as detailed above. Cells were then treated with insulin (0 or 10 nM) for 30 min followed by measurement of 2-deoxyglucose (2-DOG) uptake over the final 10 min of insulin stimulation. Data are presented as % change in 2-DOG uptake compared with vehicle-treated, insulin-stimulated cells and represent mean values±SEM of >3 independent experiments and each data point was assayed in triplicate. […] The amount of 2-DOG transported in vehicle-treated adipocytes was 20.5±3.4 pmol/min/well. Statistical analyses were performed using Student's t-Test assuming 2-tailed distribution and 2-sample equal variance.

3T3-L1 adipocytes [2] = assay: HA-tagged GLUT4 translocation to the plasma membrane; conditions: 10 μM for 20 h (ASA 5 mM), then 0.5 nM insulin
Description: FIGS. 2a and 2b are graphical representations of a compound stimulation of HA-tagged GLUT4 translocation to the plasma membrane in 3T3-L1 adipocytes. Adipocytes were incubated with 10 μM of each compound for 20 h prior to acute stimulation with 0.5 nM of insulin and measurement of HA-tagged GLUT4 translocation to the plasma membrane. a. The effect of the compound classes closest to TNFα plus ASA and TGZ co-incubated samples GES profile (see FIG. 1) on HA-tagged GLUT4 movement. Data are presented as fold change compared with 0.5 nM insulin alone set at 1.0 and represent mean values±SEM; n=12-40 per class. b. Individual CAI members effect on GLUT4 movement. […]
A secondary screen was next undertaken to test the 8 drug classes ranked most similar to the insulin re-sensitised TNFαplus ASA and TGZ co-treated samples to determine their ability to affect exogenous HA-tagged GLUT4 translocation to the plasma membrane in the presence of submaximal 0.5 nM insulin (Govers et al. Mol Cell Biol 24:6456-6466, 2004). Members from the sodium channel blockers, beta lactams, GABA antagonists, sulfamide antifolates, lipoxygenase inhibitors, dopamine antagonists, carbonic anhydrase inhibitors (CAIs) and antibiotics were incubated at 10 μM doses for 20 h and the overall effect of each class member was assessed and averaged.

[3] = tested on: TNFα-treated 3T3-L1 adipocytes; assay: TNFα-based GES small molecule library screen (MassARRAY, Zrcc score); conditions: 10 μM compound in final 24 h of 72 h TNFα (n=2); TTA n=29, TNF n=57
Description: In order to identify new insulin sensitizing agents, a small molecule library consisting of 1120 high-purity, off-patent chemical compounds was screened using the GES. First, 3T3 […] adipocytes were cultured in fourteen 96-well plates and incubated with 3 ng/ml TNFα for 72 h prior to the addition of 10 μM of each compound in the last 24 h of TNFα treatment. Four vehicle control, four TNFα and two TNFα plus ASA- and TGZ-treated wells serving as controls were included per 96-well plate. The aim of the screen was to identify compounds that caused the expression of the 7 gene GES to most closely resemble the expression levels observed in the insulin re-sensitized cells as this is likely to indicate that these cells have restored insulin sensitivity. Following RNA extraction and cDNA synthesis, gene expression analysis of the 7 gene GES was performed using the MassARRAY (Sequenom, San Diego, Calif.) [Cullinan and Cantor Pharmacogenomics 9:1211-1215, 2008]. Data are represented as a Z-score residual coefficient correlation (Zrcc); a Z-score that is normalised for sample to sample variation and for the relative contribution that each gene makes to the predictive power of the GES. Compounds were ranked based on their Zrcc score highest to lowest, and as an initial proof of concept validation test, the top ranked 30 compounds and 23 randomly chosen, mid-ranked compounds were subjected to 2-DOG uptake assays to determine their potential insulin sensitising effects. 3T3 […] adipocytes were incubated with 25 μM of each compound prior to performing 2-DOG uptake assays in the presence or absence of submaximal amounts of insulin (0.5 nM for 15 min).
The GES-ranked compounds were next broadly grouped into classes based on known mechanism of action or common structural features and re-represented as the mean Zrcc. […] As a result, the class of treatments that scored the highest, thus representing the most insulin sensitive cells, were the vehicle-treated cells with an average Zrcc score of 1.76±0.37; (p<0.0001 to TNFα treatment and p<0.002 to TNFαplus ASA and TGZ co-treatments). […]

| Compound | reversal of TNFα impairment of insulin-stimulated 2-DOG uptake (3T3-L1 adipocytes [1]) | HA-GLUT4 translocation above submaximal insulin (3T3-L1 adipocytes [2]) | Mean Zrcc_GES ± SEM, 7-gene [3] |
| --- | --- | --- | --- |
| Cc1c(C)c2c(c(C)c1O)CCC(C)(COc1ccc(CC3SC(=O)NC3=O)cc1)O2 (centres unmarked) [TGZ, troglitazone] | fully reversed TNFα effects | increased |  |
| CC(=O)/N=c1/sc(S(N)(=O)=O)nn1C [compound 808] |  |  | 0.6 |
| CCN(CC)CCOC(=O)c1ccc(N)cc1 [procaine] |  |  | 0.312 |
| O=C(O)[C@]1(O)C[C@@H](O)[C@@H](O)[C@H](O)C1 [quinic acid] |  |  | 1.673 |
